The target in assay [1] is T1, very short MTBR-tau243 fragments (human).
T1 sequence (peptide): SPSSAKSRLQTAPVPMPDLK
The assay can be described thus: immunoprecipitation from CSF, LC/MS.

The target is the same in assay [2]. The assay can be described thus: second immunoprecipitation step from CSF, LC/MS.

One molecule from US20260201023A1 can be followed below.

No constants are given. Whether binding was seen depends on the method and setting. Some binding calls cover weakened binding; strength is not graded here.

B1: HJ32.11 (antibody, V domains shown)
VH: EVQLQQSGAELVKPGASVRLSCTGSGLNIKDYFIHWVKQRTKQGLEWIGRIDPEDDEIKYAPKFQGKATITADTSSNTAYLHLISLTSEDTAVYYCGWDFNYWGQGTTLTVSS
VL: DVLMTQTPLSLPVSLGDQVSISCRSSQSIVHSNGNTYLEWYLQKPGQSPKLLIYKVSNRFSGVPDRFSGSGSGTDFTLKISRVEAEDLGVYYCFQGLHVPYTFGGGTKLEI
As for B1, the binding entry in assay [1] and in assay [2] was “binds” throughout.
